# Values from PubChem BioAssay AID720505 (Drosophila RNAi Screening Center, 2013)
# Aim: 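Fly regulators or components of the CRAC channel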 (primary screen)
# System: Drosophila S2R+ cells
# Reagents: long dsRNA against Drosophila genes
# Challenge: thapsigargin (2 µM) in calcium-free buffer to empty internal stores, then 2 mM calcium added back
# Measurement: 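Stores emptied by 2 µM thapsigargin without calcium, then 2 mM calcium re-added; fluo-4 fluorescence followed by FLIPR in 384-well plates, per-well averaged endpoint, raw; two screen passes, some wells retested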
# Reading the numbers: calcium signal and retest calcium signal: higher = more calcium entry after store depletion
# Hit rule: 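Knock-downs counted as hits when calcium entry dropped relative to STIM1 positive and Rho1 negative controls present on each plate; roughly 1500 genes called, with reductions of differing size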
# Meaning of the calls: active = called as lowering calcium entry; inactive = not called
# The deposit covers about 20,000 reagents; below is an unselected part of those with a known target gene and a result. Of all reagents, about 2,100 (10%) were called active. 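Raw plate signals without normalisation; calls rest on control-based scores that were not deposited; replicate 2 separates called from uncalled poorly.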 The numbers tell different reagents against one gene apart. A plus sign joins genes that one reagent is predicted to hit. Reagent sequences are not shown. Not stated in the record: the amount of reagent, the time to read-out.
gene,reagent no.,"calcium signal, replicate 1","calcium signal, replicate 2","retest calcium signal, replicate 1","retest calcium signal, replicate 2",Outcome
LysP,1,82.5,124,,,inactive
mRpL44,1,91.3,132,,,inactive
CG31677,1,62.9,183,,,inactive
Cyp313a2,1,112,89.3,,,inactive
DMAP1,1,106,77.8,,,inactive
da,1,171,182,,,inactive
PCB,1,229,198,,,inactive
iav,1,278,153,,,inactive
Cap-G,1,86.3,146,,,inactive
Cap-G,2,103,118,,,inactive
Cap-G,3,109,72.9,,,inactive
TotX,1,80.1,272,,,inactive
CG32712,1,137,89.2,,,inactive
moody,1,83.8,141,,,inactive
CG13029,1,69,199,,,inactive
SREBP,1,111,134,,,inactive
CG12479,1,87.6,138,,,inactive
CtBP,1,87,101,,,inactive
CG15219,1,142,115,,,inactive
CG13337,1,96.1,217,,,inactive
CG1847,1,119,147,,,inactive
Icmt,1,144,71.2,,,inactive
VAChT,1,92.1,147,,,inactive
nompB,1,86.7,126,,,inactive
nompB,2,76,91.3,136,131,active
CG10602,1,101,103,,,inactive
SA1,1,79.5,136,,,inactive
Tsp,1,74.6,140,,,inactive
Tsp,2,123,129,,,inactive
eater,1,148,121,7329,139,inactive
eater,2,89,121,,,inactive

Part of the list above, limited to “calcium signal, replicate 1”:
CG31677	62.9
Cyp313a2	112
DMAP1	106
da	171
PCB	229
iav	278
Cap-G #1	86.3
Cap-G #2	103
Cap-G #3	109
TotX	80.1
CG32712	137

Continued.
gene,reagent no.,"calcium signal, replicate 1","calcium signal, replicate 2","retest calcium signal, replicate 1","retest calcium signal, replicate 2",Outcome
Ccn,1,103,92.5,,,inactive
Ccn,2,87.8,164,,,inactive
Polr1H,1,104,152,,,inactive
CG9864,1,205,156,,,inactive
CG14232,1,140,126,,,inactive
CG34168,1,89,98.1,,,inactive
CG17650,1,187,132,,,inactive
EDTP,1,154,154,,,inactive
Rad60,1,177,134,,,inactive
CG3880,1,171,176,,,inactive
CG3880,2,229,149,,,inactive
Fgop2,1,74.5,112,,,inactive
Cyp6d4,1,154,222,,,inactive
CG4286,1,79.5,96.3,,,inactive
Nepl11,1,161,102,131,114,inactive
LysRS,1,190,148,,,inactive
Tango2,1,138,136,,,inactive
Tango2,2,168,85.8,,,inactive
S-Lap8,1,128,122,103,115,inactive
S-Lap8,2,130,109,,,inactive
Ance-2,1,63.3,112,,,active
Chsy,1,94.1,121,,,inactive
Chsy,2,90.8,116,113,83.1,inactive
babos,1,111,7348,,,inactive
babos,2,186,90.1,,,inactive
Cec-Psi1,1,108,226,,,inactive
Mtpalpha,1,90.3,101,,,inactive
UQCR-Q,1,81.6,143,,,inactive
nAChRbeta2,1,189,260,,,inactive
CG12229,1,114,187,,,inactive
CG7332,1,166,161,,,inactive
AstC,1,165,183,,,inactive
CG3492,1,170,119,,,inactive
CrebB,1,96.3,126,,,inactive
NimC2,1,130,114,,,inactive
Phax,1,148,189,,,inactive
CG31948,1,182,97.2,,,inactive
CG2698,1,109,187,,,inactive
lok,1,123,168,,,inactive
CG7627,1,172,326,,,inactive
AsnRS,1,91.1,112,,,inactive
CG9021,1,117,188,,,inactive
CG15306,1,40.1,87.3,,,active
CG15306,2,91.3,77.5,5133,113,inactive
alc,1,190,131,,,inactive
alc,2,99.6,106,,,inactive
alc,3,130,153,,,inactive
Obp50c + Obp50b,1,121,120,,,inactive
CG31050,1,,,,,active
CG1468,1,151,104,,,inactive
CG34149,1,176,134,,,inactive
Polr3K + Tcs1,1,127,118,,,inactive
